# In paper PMC10484675:
# Amino acid sequences for entries named in this document (tags omitted).
# UniProt Q08297: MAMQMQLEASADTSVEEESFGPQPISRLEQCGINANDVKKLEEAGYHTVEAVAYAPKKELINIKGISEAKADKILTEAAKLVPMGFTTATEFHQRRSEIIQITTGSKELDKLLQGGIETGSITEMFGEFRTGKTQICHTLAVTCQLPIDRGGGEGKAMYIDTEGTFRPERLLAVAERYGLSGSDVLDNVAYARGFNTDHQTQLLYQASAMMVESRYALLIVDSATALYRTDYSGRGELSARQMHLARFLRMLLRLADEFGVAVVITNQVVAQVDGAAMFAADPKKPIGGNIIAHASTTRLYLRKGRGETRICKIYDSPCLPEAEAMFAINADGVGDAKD
# No constants are given. Whether binding was seen depends on the method and setting. For part of these data: Binding seen in cells or lysates may run through a third protein. Some binding calls cover weakened binding; strength is not graded here. For part of these data: Where a sequence is shown, tags or fusion partners need not be part of it.
# B1: FLIP (endogenous, human HEK293T cells) (protein, UniProt Q9NSG2 1-853)
# chain: MFLPHMNHLTLEQTFFSQVLPKTVKLFDDMMYELTSQARGLSSQNLEIQTTLRNILQTMVQLLGALTGCVQHICATQESIILENIQSLPSSVLHIIKSTFVHCKNSESVYSGCLHLVSDLLQALFKEAYSLQKQLMELLDMVCMDPLVDDNDDILNMVIVIHSLLDICSVISSMDHAFHANTWKFIIKQSLKHQSIIKSQLKHKDIITSLCEDILFSFHSCLQLAEQMTQSDAQDNADYRLFQKTLKLCRFFANSLLHYAKEFLPFLSDSCCTLHQLYLQIHSKFPPSLYATRISKAHQEEIAGAFLVTLDPLISQLLTFQPFMQVVLDSKLDLPCELQFPQCLLLVVVMDKLPSQPKEVQTLWCTDSQVSETTTRISLLKAVFYSFEQCSGELSLPVHLQGLKSKGKAEVAVTLYQHVCVHLCTFITSFHPSLFAELDAALLNAVLSANMITSLLAMDAWCFLARYGTAELCAHHVTIVAHLIKSCPGECYQLINLSILLKRLFFFMAPPHQLEFIQKFSPKEAENLPLWQHISFQALPPELREQTVHEVTTVGTAECRKWLSRSRTLGELESLNTVLSALLAVCNSAGEALDTGKQTAIIEVVSQLWAFLNIKQVADQPYVQQTFSLLLPLLGFFIQTLDPKLILQAVTLQTSLLKLELPDYVRLAMLDFVSSLGKLFIPEAIQDRILPNLSCMFALLLADRSWLLEQHTLEAFTQFAEGTNHEEIVPQCLSSEETKNKVVSFLEKTGFVDETEAAKVERVKQEKGIFWEPFANVTVEEAKRSSLQPYAKRARQEFPWEEEYRSALHTIAGALEATESLLQKGPAPAWLSMEMEALQERMDKLKRYIHTLG
# B2: FIGNL1 (mouse), N-terminally tagged (protein, UniProt Q8BPY9 1-683)
# chain: METSSSMSVETTRSVQVDEWQKNYCVVTSSICTPKQKADAYRALLLHIQYAYANSEISQVFATNLFKRYTEKYSAIIDSDNVVTGLNNYAESIFALAGSRQADSNKWQSGLSIDNVFKMSCVQEMMQAGKKFEESLLEPADASVVLCKEPTAFEVPQLSVCGGSEDADILSSSGHDTDKTQAIPGSSLRCSPFQSARLPKETNTTKTCLTSSTSLGESATAAFHMTPLFGNTEKDTQSFPKTSTGLNMFLSNLSCVPSGCENPQERKAFNDSDIIDILSNPTLNKAPSKTEDRGRREDNSLPTFKTAKEQLWVDQKKKGHQSQHTSKSSNGVMKKSLGAGRSRGIFGKFVPPVSNKQDGSEQHAKKHKSSRAGSAEPAHLTDDCLKNVEPRMVELIMNEIMDHGPPVHWDDIAGVEFAKATIKEIVVWPMMRPDIFTGLRGPPKGILLFGPPGTGKTLIGKCIASQSGATFFSISASSLTSKWVGEGEKMVRALFAVARCQQPAVIFIDEIDSLLSQRGDGEHESSRRIKTEFLVQLDGATTSSEDRILVVGATNRPQEIDEAARRRLVKRLYIPLPEASARKQIVGNLMSKEQCCLSDEETDLVVQQSDGFSGADMTQLCREASLGPIRSLHAADIATISPDQVRPIAYIDFENAFKTVRPTVSPKDLELYENWNETFGCGK
# Key:
# [1] = target: T1, MBP-FIGNL1 (not stated (human or mouse cDNA cloned)) (UniProt Q8BPY9); assay: pull-down; in vitro GST pull-down: 0.05 μg GST or GST-FLIP on glutathione agarose beads with 0.1 μg MBP, MBP-FIGNL1 or MBP-RAD51 in 800 μl NETN buffer (20 mM Tris HCl pH 8.0, 100 mM NaCl, 1 mM EDTA, 0.5% Nonidet P-40), 4°C, 30 min; immunoblot; both purified
# T1 sequence: B2 chain
# [2] = target: T2, FIGNL1 (endogenous, human HEK293T cells) (human (endogenous in HEK293T)) (UniProt Q6PIW4); assay: co-IP; endogenous proteins; HEK293T whole-cell lysates, mock treated or treated with 10 Gy or 4 mM HU for 3 h, immunoprecipitated with anti-FIGNL1 antibodies or control IgG, immunoblotted with anti-FLIP and anti-FIGNL1
# T2 sequence: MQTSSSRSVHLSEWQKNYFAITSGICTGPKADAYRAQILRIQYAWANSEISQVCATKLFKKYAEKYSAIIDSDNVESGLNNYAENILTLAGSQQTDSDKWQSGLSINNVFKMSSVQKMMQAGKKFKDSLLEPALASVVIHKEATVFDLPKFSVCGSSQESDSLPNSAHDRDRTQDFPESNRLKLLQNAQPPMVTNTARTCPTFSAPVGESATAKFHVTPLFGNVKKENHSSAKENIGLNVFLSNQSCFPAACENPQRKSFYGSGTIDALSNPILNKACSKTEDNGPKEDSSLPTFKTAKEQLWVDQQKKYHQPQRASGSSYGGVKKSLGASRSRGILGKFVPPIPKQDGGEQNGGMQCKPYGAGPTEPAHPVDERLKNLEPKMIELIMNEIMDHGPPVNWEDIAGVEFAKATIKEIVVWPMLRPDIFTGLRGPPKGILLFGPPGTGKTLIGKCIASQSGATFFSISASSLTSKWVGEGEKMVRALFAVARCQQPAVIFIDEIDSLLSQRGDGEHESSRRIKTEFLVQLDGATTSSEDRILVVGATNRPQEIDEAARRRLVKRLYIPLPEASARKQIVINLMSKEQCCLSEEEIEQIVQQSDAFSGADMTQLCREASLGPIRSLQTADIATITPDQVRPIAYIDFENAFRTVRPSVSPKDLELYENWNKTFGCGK
# [3] = target: RAD51 (mouse), N-terminally tagged (mouse) (UniProt Q08297); assay: co-IP; 293T cells transiently transfected with N-terminally FLAG-, HA- or GFP-tagged mouse proteins, harvested after 24 h; lysis in 25 mM Tris-HCl pH 7.5, 300 mM NaCl, 1% Triton X-100, 1 mM DTT, 1 mM EDTA with sonication; antibody-conjugated agarose beads, 4°C, 4 h; Western blot. RAD51-FLIP co-precipitate strong with overexpressed FIGNL1, basal without exogenous FIGNL1
molecule,measurement,setting,value
MBP-RAD51 (from UniProt Q08297 1-339),binding,[1],binds
B1,binding,[2],binds
B2,binding,[3],binds
